PubChem BioAssay AID504804, Drosophila RNAi Screening Center, 2011

Test: 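Fly genes whose loss lessens doxorubicin-driven cell death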 (primary screen)
Cells: Drosophila Kc cells
Knock-down reagent: long dsRNA against Drosophila genes, 0.5 µg dsRNA per well
Duration: 96 h (48 h knock-down, then 48 h drug)
Challenge: doxorubicin 5 µg/ml for 48 h, added 48 h after dsRNA
Detection: 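Luminescent ATP counts per replicate, not normalised, reflecting viable cells after 48 h dsRNA knock-down followed by 48 h of 5 µg/ml doxorubicin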
Scale: raw ATP luminescence: higher = more viable cells, protection from doxorubicin
Call rule: 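Active when both duplicate wells lie at least 2 SD above the plate mean and protection is confirmed by rescreening and independent dsRNAs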
The screen tested about 19,000 reagents; this is a random part of those with a known target gene and a result. Over the whole deposit, 47 (0.25%) were called active. 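Signals are raw, not normalised; exact z-scores behind calls not deposited; actives needed confirmation, so some wells reaching 2 SD are inactive.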 The numbers tell different reagents against one gene apart.

Silencing of Vps15 (Vacuolar protein sorting 15) resulted in: raw ATP luminescence, replicate 1 = 61513; raw ATP luminescence, replicate 2 = 33800; inactive.
For CG32276, the entry reads raw ATP luminescence, replicate 1 = 1.43e5; raw ATP luminescence, replicate 2 = 1.76e5; inactive.
Depletion of Cbp20 (cap binding protein 20) gave: raw ATP luminescence, replicate 1 = 39960; raw ATP luminescence, replicate 2 = 38780; inactive.
Depletion of Hex-A (Hexokinase A) gave: raw ATP luminescence, replicate 1 = 2.94e5; raw ATP luminescence, replicate 2 = 3.00e5; inactive.
With knock-down of Nbr (Nibbler), the record shows raw ATP luminescence, replicate 1 = 71600; raw ATP luminescence, replicate 2 = 57950; inactive.
Silencing of baf (barrier to autointegration factor) came out at: raw ATP luminescence, replicate 1 = 42620; raw ATP luminescence, replicate 2 = 76870; inactive.
With knock-down of Cys (Cystatin-like), the screen gave raw ATP luminescence, replicate 1 = 98030; raw ATP luminescence, replicate 2 = 65900; inactive.
Knock-down of SdhC (Succinate dehydrogenase, subunit C) came out at: raw ATP luminescence, replicate 1 = 56237; raw ATP luminescence, replicate 2 = 44497; inactive.
For Rab5, the values are raw ATP luminescence, replicate 1 = 1.11e5; raw ATP luminescence, replicate 2 = 69083; inactive.
With knock-down of CG10600, the screen gave raw ATP luminescence, replicate 1 = 1.03e5; raw ATP luminescence, replicate 2 = 86427; inactive.
CG13721 scored raw ATP luminescence, replicate 1 = 86447; raw ATP luminescence, replicate 2 = 99923; inactive.
Against rdgB (retinal degeneration B), the entry reads raw ATP luminescence, replicate 1 = 1.51e5; raw ATP luminescence, replicate 2 = 1.79e5; inactive.
Against CG13847 the deposit lists raw ATP luminescence, replicate 1 = 23507; raw ATP luminescence, replicate 2 = 26503; inactive.
CG32450 showed raw ATP luminescence, replicate 1 = 50750; raw ATP luminescence, replicate 2 = 43810; inactive.

2 of these entries, set out differently.
gene knocked down,reagent,"raw ATP luminescence, replicate 1","raw ATP luminescence, replicate 2",call
Cys (Cystatin-like),1,98030,65900,inactive
"SdhC (Succinate dehydrogenase, subunit C)",1,56237,44497,inactive

Next entries follow.
After knock-down of c12.2 the results were raw ATP luminescence, replicate 1 = 3.27e5; raw ATP luminescence, replicate 2 = 3.33e5; inactive.
For CG1894, the values are raw ATP luminescence, replicate 1 = 57420; raw ATP luminescence, replicate 2 = 51040; inactive.
With knock-down of Prp6 (pre-mRNA processing factor 6) the results were raw ATP luminescence, replicate 1 = 22720; raw ATP luminescence, replicate 2 = 21070; inactive.
m (miniature) gave raw ATP luminescence, replicate 1 = 3.08e5; raw ATP luminescence, replicate 2 = 2.16e5; inactive.
Against ppk12 (pickpocket 12), the entry reads raw ATP luminescence, replicate 1 = 41683; raw ATP luminescence, replicate 2 = 56723; inactive.
With knock-down of CG31678 #1, the record shows raw ATP luminescence, replicate 1 = 91657; raw ATP luminescence, replicate 2 = 1.09e5; inactive.
Depletion of CG31678 #2 gave: raw ATP luminescence, replicate 1 = 56380; raw ATP luminescence, replicate 2 = 52683; inactive.
Ufc1 (Ubiquitin-fold modifier conjugating enzyme 1) gave raw ATP luminescence, replicate 1 = 52290; raw ATP luminescence, replicate 2 = 52480; inactive.
Depletion of Eig71Eg (Ecdysone-induced gene 71Eg) resulted in: raw ATP luminescence, replicate 1 = 37733; raw ATP luminescence, replicate 2 = 28830; inactive.
Silencing of TotB (Turandot B) came out at: raw ATP luminescence, replicate 1 = 59100; raw ATP luminescence, replicate 2 = 91240; inactive.
RunxA (Runt related A) #1 showed raw ATP luminescence, replicate 1 = 1.94e5; raw ATP luminescence, replicate 2 = 1.91e5; inactive.
Knock-down of RunxA (Runt related A) #2 came out at: raw ATP luminescence, replicate 1 = 2.59e5; raw ATP luminescence, replicate 2 = 2.44e5; inactive.
RunxA (Runt related A) #3 scored raw ATP luminescence, replicate 1 = 3.10e5; raw ATP luminescence, replicate 2 = 3.01e5; inactive.
Knock-down of CG1105 resulted in: raw ATP luminescence, replicate 1 = 42623; raw ATP luminescence, replicate 2 = 25753; inactive.
